Experimental data taken from US20180185444A1.
These are yes or no findings as the source states them, for the method shown. Binding seen in cells or lysates may run through a third protein. Some entries that bind do so weakly or less than the wild type.

Amino acid sequences for entries named in this document (tags omitted). A change or cut given only in a name is not applied to a line headed by its entry.
UniProt O00168: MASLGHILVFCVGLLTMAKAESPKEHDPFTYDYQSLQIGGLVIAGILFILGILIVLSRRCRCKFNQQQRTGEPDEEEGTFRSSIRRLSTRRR

Biological target: T1, endothelial nitric oxide synthase (human) (UniProt P29474)
T1 sequence (looked up): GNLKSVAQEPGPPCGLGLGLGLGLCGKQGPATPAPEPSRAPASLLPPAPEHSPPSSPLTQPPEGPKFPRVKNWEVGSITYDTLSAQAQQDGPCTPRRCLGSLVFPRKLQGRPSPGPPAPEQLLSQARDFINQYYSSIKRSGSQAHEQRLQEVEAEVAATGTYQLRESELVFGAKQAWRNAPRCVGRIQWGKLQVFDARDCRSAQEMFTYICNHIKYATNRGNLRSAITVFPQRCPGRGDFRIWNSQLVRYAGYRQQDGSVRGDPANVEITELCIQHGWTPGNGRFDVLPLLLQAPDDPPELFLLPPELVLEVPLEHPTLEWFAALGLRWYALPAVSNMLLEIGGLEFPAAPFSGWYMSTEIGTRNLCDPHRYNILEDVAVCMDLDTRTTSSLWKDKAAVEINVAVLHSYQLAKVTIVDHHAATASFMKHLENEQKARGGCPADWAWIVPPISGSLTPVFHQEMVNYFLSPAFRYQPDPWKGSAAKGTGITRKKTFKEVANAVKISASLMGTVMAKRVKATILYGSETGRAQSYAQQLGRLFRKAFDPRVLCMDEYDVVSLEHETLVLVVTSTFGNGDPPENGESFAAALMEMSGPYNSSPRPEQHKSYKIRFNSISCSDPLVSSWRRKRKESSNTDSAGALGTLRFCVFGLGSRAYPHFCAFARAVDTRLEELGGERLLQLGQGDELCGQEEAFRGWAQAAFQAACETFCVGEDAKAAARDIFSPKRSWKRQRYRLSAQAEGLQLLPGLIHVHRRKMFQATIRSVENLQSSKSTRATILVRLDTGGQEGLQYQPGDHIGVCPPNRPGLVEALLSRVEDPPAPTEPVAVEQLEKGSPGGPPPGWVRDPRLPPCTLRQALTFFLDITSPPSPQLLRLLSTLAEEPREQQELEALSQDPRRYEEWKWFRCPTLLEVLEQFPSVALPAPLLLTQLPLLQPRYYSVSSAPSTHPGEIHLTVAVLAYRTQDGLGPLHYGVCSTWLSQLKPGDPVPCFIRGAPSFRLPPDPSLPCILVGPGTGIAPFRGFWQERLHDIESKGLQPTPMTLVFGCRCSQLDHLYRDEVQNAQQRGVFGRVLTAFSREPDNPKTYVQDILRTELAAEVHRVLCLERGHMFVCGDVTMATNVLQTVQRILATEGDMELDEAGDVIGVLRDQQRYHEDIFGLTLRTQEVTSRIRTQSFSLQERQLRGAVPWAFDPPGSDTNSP
Test: co-immunoprecipitation from HUVEC lysate, western blot

FXYD1 (from UniProt O00168 21-92) was tested, and the binding was “binds”.
